# Measured values: the supplement of paper PMC12873370
# The other results are listed elsewhere or left out. Many values rest on one well or one pass, so single values are uncertain.
# System: MEPP (mouse ovarian epithelium Trp53/Pten KO)
# Assay: cell viability relative to untreated (fraction); higher = less growth inhibition
# Settings: 5 µM; 3 days
row,SMILES,cell viability
1,C[C@H]1O[C@@H](O[C@H]2CC[C@@]3(C)[C@@H](CC[C@]4(C)[C@@H]3C=C[C@]35OC[C@@]6(CCC(C)(C)C[C@H]63)[C@@H](O)C[C@]54C)[C@]2(C)CO)[C@H](O)[C@@H](O[C@@H]2O[C@H](CO)[C@@H](O)[C@H](O)[C@H]2O)[C@H]1O,0.363
2,Cc1cn(C2OC(CO)C(O)C2O)c(=O)[nH]c1=O (stereo not given),1.23
3,CCCN[C@H]1CCc2nc(N)sc2C1,1.14
4,CC1=C(C/C=C(\C)CCC[C@H](C)CCC[C@H](C)CCCC(C)C)C(=O)c2ccccc2C1=O,0.823
5,COc1ccc([C@@H]2CC(=O)c3c(O)cc(O[C@@H]4O[C@H](CO[C@@H]5O[C@@H](C)[C@H](O)[C@@H](O)[C@H]5O)[C@@H](O)[C@H](O)[C@H]4O)cc3O2)cc1O,0.933
6,O=C1CN(/N=C/c2ccc([N+](=O)[O-])o2)C(=O)N1,0.86
7,C[C@@H]1NC(=O)[C@@H](N)CNC(=O)[C@H](C2CCNC(=N)N2)NC(=O)/C(=C/NC(N)=O)NC(=O)[C@H](CNC(=O)CC(N)CCCN)NC1=O.N=C1NCCC([C@@H]2NC(=O)/C(=C/NC(N)=O)NC(=O)[C@H](CNC(=O)CC(N)CCCN)NC(=O)[C@H](CO)NC(=O)[C@@H](N)CNC2=O)N1 (stereo not given in full),1.31
8,COc1cc2c(c(OC)c1OC)-c1c(cc3c(c1OC)OCO3)CC(C)C(C)C2 (stereo not given),1.15
9,NC(CO)C(=O)O (stereo not given),1.52
10,C[C@H]1c2cccc(O)c2C(=O)C2=C(O)[C@]3(O)C(=O)C(C(N)=O)=C(O)[C@@H](N(C)C)[C@@H]3[C@@H](O)[C@@H]21,0.974
